Test results published in the supplement of paper PMC11006884.
Shown are results outside the selection of targets with a hit, which stands elsewhere. Single values of this set are uncertain. Only a part is listed here, and it is no random draw.

Protein sequences, listed by entry. Tags and fused reporters are not part of them. Lines headed by an entry give the natural chain unless they say otherwise; changes in a name come on top.
UniProt P49368: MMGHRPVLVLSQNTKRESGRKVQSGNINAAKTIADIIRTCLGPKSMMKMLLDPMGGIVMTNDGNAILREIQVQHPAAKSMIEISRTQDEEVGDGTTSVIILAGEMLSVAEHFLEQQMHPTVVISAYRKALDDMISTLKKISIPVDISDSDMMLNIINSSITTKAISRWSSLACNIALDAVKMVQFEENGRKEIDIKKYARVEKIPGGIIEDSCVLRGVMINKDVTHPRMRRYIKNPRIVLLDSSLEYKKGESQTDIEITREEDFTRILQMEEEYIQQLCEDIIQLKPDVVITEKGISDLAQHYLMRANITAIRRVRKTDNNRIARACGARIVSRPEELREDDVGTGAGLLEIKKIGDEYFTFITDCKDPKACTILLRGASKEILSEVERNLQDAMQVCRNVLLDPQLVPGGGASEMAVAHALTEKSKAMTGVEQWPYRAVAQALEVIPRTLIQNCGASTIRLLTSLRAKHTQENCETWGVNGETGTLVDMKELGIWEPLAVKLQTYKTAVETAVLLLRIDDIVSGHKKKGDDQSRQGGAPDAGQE
UniProt P51452: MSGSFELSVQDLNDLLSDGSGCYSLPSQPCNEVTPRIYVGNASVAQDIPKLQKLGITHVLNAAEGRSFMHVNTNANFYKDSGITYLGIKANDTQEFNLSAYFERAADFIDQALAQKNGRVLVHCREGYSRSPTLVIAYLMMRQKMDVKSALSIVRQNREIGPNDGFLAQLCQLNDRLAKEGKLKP
UniProt P46013: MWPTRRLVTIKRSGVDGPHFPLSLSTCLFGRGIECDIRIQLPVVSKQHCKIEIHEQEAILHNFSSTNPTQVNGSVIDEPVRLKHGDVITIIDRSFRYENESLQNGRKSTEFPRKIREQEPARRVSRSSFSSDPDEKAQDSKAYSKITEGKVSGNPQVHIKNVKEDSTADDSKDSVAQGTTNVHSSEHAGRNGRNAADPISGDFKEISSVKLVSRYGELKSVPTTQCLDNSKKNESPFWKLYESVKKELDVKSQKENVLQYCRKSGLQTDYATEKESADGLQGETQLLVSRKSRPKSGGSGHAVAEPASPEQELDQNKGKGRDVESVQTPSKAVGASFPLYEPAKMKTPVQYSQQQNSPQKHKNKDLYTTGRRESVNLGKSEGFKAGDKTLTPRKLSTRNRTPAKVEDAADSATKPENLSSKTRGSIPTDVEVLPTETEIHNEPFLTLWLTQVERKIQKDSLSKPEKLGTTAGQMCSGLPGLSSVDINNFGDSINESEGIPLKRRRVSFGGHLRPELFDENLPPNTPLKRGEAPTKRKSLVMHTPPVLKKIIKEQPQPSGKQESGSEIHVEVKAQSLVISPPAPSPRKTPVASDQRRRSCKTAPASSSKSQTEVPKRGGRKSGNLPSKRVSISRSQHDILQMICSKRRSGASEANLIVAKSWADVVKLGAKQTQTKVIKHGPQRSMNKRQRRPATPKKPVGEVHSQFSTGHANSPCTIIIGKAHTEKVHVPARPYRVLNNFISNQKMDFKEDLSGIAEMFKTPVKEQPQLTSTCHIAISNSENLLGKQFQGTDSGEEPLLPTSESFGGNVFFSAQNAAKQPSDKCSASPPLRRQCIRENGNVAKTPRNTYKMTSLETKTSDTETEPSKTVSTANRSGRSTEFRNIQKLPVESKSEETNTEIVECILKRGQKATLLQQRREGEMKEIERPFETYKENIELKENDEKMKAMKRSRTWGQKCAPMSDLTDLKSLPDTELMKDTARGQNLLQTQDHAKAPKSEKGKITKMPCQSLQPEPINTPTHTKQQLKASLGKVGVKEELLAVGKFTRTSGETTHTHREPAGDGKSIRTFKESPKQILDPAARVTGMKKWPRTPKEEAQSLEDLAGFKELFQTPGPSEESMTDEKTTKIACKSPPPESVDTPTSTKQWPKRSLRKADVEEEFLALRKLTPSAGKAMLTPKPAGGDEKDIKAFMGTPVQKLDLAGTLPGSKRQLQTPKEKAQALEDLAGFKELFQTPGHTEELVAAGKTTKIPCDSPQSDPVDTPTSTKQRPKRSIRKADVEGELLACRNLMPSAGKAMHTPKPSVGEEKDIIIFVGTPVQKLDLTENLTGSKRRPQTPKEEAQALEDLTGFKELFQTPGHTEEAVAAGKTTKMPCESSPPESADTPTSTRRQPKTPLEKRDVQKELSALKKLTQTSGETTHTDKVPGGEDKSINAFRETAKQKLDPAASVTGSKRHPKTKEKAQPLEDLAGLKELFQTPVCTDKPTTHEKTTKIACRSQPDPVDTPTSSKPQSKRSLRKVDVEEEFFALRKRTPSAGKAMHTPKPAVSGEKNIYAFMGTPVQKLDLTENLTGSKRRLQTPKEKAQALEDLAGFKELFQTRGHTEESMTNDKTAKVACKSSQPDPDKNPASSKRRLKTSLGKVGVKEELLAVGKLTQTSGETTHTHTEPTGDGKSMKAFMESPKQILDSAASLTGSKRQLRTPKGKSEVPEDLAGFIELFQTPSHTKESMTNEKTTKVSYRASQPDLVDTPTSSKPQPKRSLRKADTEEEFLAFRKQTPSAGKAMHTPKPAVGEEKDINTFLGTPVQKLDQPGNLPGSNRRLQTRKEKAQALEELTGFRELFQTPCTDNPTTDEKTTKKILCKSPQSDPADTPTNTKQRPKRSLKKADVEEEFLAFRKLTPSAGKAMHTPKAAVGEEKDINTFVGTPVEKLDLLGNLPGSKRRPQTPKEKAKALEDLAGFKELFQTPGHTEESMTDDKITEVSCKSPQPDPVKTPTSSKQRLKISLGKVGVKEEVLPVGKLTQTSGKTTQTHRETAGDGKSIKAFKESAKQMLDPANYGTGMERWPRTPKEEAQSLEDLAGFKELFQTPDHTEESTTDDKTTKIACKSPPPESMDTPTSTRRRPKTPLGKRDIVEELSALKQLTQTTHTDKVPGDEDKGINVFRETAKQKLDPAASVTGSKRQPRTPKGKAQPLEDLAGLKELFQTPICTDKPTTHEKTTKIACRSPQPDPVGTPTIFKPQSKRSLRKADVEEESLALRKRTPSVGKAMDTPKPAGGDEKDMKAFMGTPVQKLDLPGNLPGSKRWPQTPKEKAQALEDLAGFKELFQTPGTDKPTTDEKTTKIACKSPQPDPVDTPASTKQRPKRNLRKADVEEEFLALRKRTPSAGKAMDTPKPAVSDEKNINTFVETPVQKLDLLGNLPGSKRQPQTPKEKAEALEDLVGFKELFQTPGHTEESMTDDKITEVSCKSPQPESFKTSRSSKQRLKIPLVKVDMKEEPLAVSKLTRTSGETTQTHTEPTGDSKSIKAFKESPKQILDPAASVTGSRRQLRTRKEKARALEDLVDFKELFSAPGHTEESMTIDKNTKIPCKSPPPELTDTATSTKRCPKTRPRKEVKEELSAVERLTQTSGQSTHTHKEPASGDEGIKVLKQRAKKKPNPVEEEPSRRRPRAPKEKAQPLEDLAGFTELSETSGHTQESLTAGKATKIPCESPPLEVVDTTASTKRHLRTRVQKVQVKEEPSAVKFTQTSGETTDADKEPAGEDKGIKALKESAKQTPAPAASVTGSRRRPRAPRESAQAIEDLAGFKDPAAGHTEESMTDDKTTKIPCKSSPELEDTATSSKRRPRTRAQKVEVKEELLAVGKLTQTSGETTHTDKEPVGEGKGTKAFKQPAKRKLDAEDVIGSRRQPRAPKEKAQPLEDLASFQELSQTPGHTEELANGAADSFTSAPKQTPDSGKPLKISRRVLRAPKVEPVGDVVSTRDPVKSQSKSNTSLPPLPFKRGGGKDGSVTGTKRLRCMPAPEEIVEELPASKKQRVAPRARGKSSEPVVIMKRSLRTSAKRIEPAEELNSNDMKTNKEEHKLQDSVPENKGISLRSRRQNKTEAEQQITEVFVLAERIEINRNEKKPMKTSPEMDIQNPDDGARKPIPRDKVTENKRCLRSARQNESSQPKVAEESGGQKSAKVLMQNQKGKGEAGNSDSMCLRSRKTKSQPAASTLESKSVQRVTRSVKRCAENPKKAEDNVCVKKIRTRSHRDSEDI
UniProt P48147: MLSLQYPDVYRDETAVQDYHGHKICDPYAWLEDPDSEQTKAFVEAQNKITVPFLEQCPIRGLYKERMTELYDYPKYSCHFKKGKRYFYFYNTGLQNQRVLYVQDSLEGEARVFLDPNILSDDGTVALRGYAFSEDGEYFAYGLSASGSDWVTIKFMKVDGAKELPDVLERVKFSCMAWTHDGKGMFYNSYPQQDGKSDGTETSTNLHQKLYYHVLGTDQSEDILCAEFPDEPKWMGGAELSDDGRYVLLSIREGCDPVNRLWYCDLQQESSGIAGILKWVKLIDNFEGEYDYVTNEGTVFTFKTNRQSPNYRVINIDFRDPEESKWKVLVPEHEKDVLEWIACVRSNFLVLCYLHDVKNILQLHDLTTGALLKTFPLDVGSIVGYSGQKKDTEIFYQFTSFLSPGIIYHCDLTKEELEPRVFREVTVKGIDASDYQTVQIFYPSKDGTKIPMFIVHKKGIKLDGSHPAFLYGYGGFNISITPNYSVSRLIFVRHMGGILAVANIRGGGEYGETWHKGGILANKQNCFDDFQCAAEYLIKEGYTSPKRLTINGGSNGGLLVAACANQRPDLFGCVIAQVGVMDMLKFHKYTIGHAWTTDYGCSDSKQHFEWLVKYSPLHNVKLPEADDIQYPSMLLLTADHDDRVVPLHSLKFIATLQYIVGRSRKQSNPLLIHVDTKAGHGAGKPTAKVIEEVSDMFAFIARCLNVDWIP
UniProt P50213: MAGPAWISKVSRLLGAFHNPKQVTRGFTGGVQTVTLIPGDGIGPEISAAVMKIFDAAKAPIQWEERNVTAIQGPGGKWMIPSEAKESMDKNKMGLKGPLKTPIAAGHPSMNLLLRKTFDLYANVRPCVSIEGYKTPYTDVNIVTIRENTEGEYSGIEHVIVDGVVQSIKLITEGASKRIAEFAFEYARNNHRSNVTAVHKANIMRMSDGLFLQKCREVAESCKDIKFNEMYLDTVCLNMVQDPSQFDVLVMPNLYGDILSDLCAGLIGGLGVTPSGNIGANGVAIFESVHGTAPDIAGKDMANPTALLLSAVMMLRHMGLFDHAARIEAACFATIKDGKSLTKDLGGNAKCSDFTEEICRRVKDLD
UniProt P50548: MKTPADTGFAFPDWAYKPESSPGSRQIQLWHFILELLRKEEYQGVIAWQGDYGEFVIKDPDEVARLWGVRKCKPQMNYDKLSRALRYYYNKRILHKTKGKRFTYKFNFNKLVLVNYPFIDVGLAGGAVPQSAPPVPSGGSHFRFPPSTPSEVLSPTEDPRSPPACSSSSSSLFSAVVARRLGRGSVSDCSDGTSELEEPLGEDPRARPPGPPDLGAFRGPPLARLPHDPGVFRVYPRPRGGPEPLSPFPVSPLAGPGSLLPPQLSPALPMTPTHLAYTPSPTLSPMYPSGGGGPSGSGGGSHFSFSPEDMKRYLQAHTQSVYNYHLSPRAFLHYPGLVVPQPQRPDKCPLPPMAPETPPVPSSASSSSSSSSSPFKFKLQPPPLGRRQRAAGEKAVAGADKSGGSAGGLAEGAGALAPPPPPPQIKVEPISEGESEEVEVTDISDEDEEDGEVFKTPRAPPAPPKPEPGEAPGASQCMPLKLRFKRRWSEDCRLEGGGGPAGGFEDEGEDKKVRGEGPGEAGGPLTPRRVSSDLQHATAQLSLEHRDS
UniProt P48735: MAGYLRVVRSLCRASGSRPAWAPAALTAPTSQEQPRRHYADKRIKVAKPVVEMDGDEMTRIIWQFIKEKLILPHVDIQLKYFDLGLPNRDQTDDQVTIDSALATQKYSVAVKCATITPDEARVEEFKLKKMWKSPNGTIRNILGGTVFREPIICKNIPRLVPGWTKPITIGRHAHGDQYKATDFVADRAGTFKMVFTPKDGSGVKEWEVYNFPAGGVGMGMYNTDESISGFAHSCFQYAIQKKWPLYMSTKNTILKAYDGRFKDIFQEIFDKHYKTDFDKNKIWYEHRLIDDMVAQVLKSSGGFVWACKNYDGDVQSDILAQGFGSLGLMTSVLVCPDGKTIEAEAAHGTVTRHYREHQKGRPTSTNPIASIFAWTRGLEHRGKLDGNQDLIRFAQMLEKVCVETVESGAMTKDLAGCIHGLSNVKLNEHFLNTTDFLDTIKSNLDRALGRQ
UniProt P49642: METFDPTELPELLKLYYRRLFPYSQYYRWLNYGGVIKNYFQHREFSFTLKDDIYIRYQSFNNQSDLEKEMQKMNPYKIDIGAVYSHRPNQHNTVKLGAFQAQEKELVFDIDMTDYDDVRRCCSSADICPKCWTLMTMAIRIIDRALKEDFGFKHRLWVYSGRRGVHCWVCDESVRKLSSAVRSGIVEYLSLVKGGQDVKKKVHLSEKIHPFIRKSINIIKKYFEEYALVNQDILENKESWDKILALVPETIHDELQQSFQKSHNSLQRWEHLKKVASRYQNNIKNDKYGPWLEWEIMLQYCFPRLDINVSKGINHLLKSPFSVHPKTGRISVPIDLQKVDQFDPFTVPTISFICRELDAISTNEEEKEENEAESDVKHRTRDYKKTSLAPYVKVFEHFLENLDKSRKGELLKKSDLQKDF

Compound: COC(=O)/C=C/c1ccccc1 [methyl cinnamate]
Test: log2 ratio of iodoacetamide-alkyne labeling of the cysteine site, DMSO over compound (competition); higher = stronger covalent engagement of the cysteine by the compound, active = 1 or more
Details: 500 µM; treatment time 1 h; system: HEK293T cell lysate
Procedure, shortened: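 The log2 competition ratio per cysteine is defined as mean reporter intensity in control channels over mean reporter intensity in compound channels. Lysate from HEK293T cells (2 mg/mL) received electrophile (500 µM) or vehicle for 1 h at ambient temperature, followed by iodoacetamide alkyne for 1 h. Samples were clicked to sCIP-TMT reagents, pooled, trypsin-digested overnight at 37 °C, streptavidin-enriched, acid-eluted and run on Orbitrap Eclipse LC-MS/MS with FAIMS, with quantification in FragPipe. Three replicates with duplicate channels were used, and any cysteine quantified in only one replicate was excluded.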

log2 ratio of iodoacetamide-alkyne labeling, inactive:
IDH3G C81 (UniProt P51553) 0.374, NSF C599 (UniProt P46459) 0.0542, UniProt P49459_C152 0.143, CCT3 C398 (UniProt P49368) 0.125, DUSP3 C171 (UniProt P51452) 0.358, RPS5 C66 (UniProt P46782) 0.211, MKI67 C715 (UniProt P46013) 0.25, PLA2G4A C726 (UniProt P47712) 0.286, NAMPT C401 (UniProt P43490) 0.321, USP5 C335 (UniProt P45974) -0.102, FASN C2468 (UniProt P49327) 0.197, PREP C532 (UniProt P48147) 0.0974, RPL5 C100 (UniProt P46777) 0.195, GALK1 C170 (UniProt P51570) -0.321, UniProt P48730_C255 0.106, CAPZA2 C111 (UniProt P47755) 0.138, IDH3A C222 (UniProt P50213) 0.366, PREP C25 (UniProt P48147) 0.00615, HCFC1 C1953 (UniProt P51610) -0.19, NSF C11 (UniProt P46459) -0.1, ERF C165 (UniProt P50548) 0.242, EMD C147 (UniProt P50402) 0.3, VDAC2 C76 (UniProt P45880) 0.185, IDH2 C418 (UniProt P48735) -0.0349, KNTC1 C767 (UniProt P50748) -0.102, ALDH7A1 C522 (UniProt P49419) 0.104, SMARCA4 C936 (UniProt P51532) 0.145, NOP2 C463 (UniProt P46087) 0.173, RPL27A C70 (UniProt P46776) 0.0341, IDH3A C331 (UniProt P50213) 0.184, MSH2 C873 (UniProt P43246) 0.468, MSH2 C176 (UniProt P43246) -0.135, PRIM1 C354 (UniProt P49642) 0.0483, IDH3A C359 (UniProt P50213) 0.521, VASP C334 (UniProt P50552) 0.469, ACADSB C175 (UniProt P45954) 0.287, VDAC2 C210 (UniProt P45880) 0.0403
